Among the data in PMC8791842 are binding values, retold here.

Sequences of proteins named here, by UniProt entry; tags and fusion partners are left off. Residues count along the entry.
UniProt P01024, residues 955-1303: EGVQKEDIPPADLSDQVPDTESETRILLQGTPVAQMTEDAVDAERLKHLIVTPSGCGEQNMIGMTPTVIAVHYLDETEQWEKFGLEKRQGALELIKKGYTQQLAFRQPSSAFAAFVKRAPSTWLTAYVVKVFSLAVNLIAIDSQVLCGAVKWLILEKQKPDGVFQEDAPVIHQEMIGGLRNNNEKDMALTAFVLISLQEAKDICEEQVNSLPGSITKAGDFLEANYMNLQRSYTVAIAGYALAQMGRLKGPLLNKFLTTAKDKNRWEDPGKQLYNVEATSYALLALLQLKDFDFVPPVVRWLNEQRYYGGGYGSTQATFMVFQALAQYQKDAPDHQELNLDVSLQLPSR
UniProt P02748, residues 22-559: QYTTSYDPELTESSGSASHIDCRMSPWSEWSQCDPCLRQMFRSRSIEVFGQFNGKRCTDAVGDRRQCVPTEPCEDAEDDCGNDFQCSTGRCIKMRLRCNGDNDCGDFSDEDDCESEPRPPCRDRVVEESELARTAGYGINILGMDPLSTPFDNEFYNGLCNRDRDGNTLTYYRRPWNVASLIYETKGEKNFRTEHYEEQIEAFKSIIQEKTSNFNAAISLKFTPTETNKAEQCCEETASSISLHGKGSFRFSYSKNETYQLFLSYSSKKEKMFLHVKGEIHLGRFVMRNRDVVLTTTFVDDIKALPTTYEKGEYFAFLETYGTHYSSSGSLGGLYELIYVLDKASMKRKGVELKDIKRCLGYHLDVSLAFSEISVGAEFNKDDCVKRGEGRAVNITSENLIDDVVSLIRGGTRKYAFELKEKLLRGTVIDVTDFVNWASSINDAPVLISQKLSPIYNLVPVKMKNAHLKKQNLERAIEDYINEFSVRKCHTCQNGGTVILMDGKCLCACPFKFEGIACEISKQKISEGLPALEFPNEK
UniProt P08962: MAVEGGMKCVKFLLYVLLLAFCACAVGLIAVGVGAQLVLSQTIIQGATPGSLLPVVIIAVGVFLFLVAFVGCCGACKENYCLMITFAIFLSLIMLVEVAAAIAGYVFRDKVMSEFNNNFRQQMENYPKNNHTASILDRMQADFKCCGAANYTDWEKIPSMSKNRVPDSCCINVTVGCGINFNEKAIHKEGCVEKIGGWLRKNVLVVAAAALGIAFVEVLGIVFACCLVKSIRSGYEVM
UniProt Q99816: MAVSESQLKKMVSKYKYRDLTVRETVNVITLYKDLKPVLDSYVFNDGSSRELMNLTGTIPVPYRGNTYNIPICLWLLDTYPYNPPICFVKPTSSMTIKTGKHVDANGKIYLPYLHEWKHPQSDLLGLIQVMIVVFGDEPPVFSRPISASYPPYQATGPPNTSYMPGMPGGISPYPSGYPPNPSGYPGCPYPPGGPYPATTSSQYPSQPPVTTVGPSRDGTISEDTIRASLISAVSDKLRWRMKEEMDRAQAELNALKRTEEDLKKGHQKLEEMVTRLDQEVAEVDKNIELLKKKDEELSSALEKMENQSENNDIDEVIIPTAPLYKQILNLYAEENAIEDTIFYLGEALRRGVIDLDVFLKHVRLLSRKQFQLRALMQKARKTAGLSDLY

No constants are given. Whether binding was seen depends on the method and setting. In cells and extracts the contact can be indirect.

Assay [1] deals with C3dg (human (endogenous in urine extracellular vesicles)) (UniProt P01024). Put plainly: co-IP; immunoaffinity isolation from 100 uL of pooled PEG-precipitated urine extracellular vesicles (6 C9 neoantigen-positive KTRs) in PBS; biotinylated anti-C3dg 15-39-06 (5 ug/mL) or pooled biotinylated anti-native C9 8-12-67 and 8-12-71 (4 ug/mL each), 4°C, 60 min; streptavidin magnetic beads; three PBS washes; eluted in 0.5% citric acid; immunoblot of eluates. Background: In western blotting, separated proteins are transferred to a membrane and probed.

Assay [2] has as its target complement C9 (human (endogenous in urine extracellular vesicles)) (UniProt P02748). The description is as above.

Regarding CD63 (from UniProt P08962 1-238), the binding result in assay [1] is “no binding”.
In the case of “tumor susceptibility gene 101 protein (from UniProt Q99816 1-390)”, the binding entry in assay [1] and in assay [2] was “no binding” throughout.
